This passage reports median seed-adjusted z-score results from PubChem BioAssay AID1347426 (Functional Genomics Laboratory (NCATS/FGL), 2020).

About 1,400 (4.5%) of roughly 31,000 sequences were called active.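 The calls were made as follows: active = median seed-adjusted z-score above 1 or below -1; inactive = the rest.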 Some of the results follow.

A short description of the experiment: Novel Modifiers of Survival Motor Neuron (SMN) Protein: Gene Identification via Genome-wide siRNA Screen.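 Also: luminescence tracks full-length SMN protein made from the SMN2 reporter.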 Particulars: HEK293T SMN2-luciferase reporter, siRNA knockdown, 72 h; actives lie on both sides. The method in brief: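 HEK293T cells stably expressing an SMN2 splicing/cDNA-luciferase reporter were reverse-transfected with a druggable-genome siRNA library and read by luminescence at 72 hours; hits defined by MAD score above 1.0 or below -1.0.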
For orientation: In a reporter assay the amount or activity of a reporter protein is the signal.
For GGGUUAGGAGUGUACAUCATT against NIN, the median seed-adjusted z-score was inactive: 0.646.

Take GGCCUUUCCUUUACUGUCATT against ABCC4: the median seed-adjusted z-score is active: -1.66.

For the sequence AGAACAACCGGAUUCGAGATT against LRRC52, the median seed-adjusted z-score is inactive: 0.118.

In the case of GAUUCGUUCUUCUACAACUTT against PSMD2, the median seed-adjusted z-score was active: -1.44.

As for ACCAAUAUGUGCUCACUUUTT against MOGAT3, the median seed-adjusted z-score was inactive: -0.383.

In the case of GAGUAUGCGUUGAGACAUUTT against LGMN, the median seed-adjusted z-score is inactive: 0.391.

For the sequence ACCUGAAGUUUGCCCGCUATT against SLC29A2, the median seed-adjusted z-score was inactive: -0.0569.

As for GAAUAGAUUUCAGUAGUAUTT against DDI2, the median seed-adjusted z-score is active: 1.27.

With AGGAGUUCCAUUUCAACAATT against HOXB1, the median seed-adjusted z-score was inactive: -0.0455.

CGAUGAAACUCUCAUAGAUTT against HK1: the median seed-adjusted z-score was inactive: -0.129.

In the case of CAAAAGGACUAAUACCAUATT against HIBCH, the median seed-adjusted z-score was inactive: 0.0655.

On to CCCACUAAAUUUUCGGAAATT against ATAD2, for which the median seed-adjusted z-score is inactive: -0.246.

As for GGUGCAAGAGAGUCCGUUUTT against D2HGDH, the median seed-adjusted z-score is inactive: -0.637.

As for GCAGGUUUCUCAUCGAUUUTT against MYST3, the median seed-adjusted z-score was inactive: -0.49.

GCUACACGCUGAUGAACAATT against KIF17: the median seed-adjusted z-score was inactive: -0.151.

As to GACACUACCUUCUCCCAUUTT against NR1I2, the median seed-adjusted z-score was inactive: -0.922.

Turning to GCCUUAUUAUGAUCUUGUATT against TGFBR1, the median seed-adjusted z-score is inactive: 0.226.

As to GGCUCAAUAACAUCGUUAATT against BCL6, the median seed-adjusted z-score was inactive: -0.352.

For GGAGUUCGCAAAAUCGUCATT against NRK, the median seed-adjusted z-score is inactive: 0.0687.

On to CCUAAUUCCUGGAGUGAUATT against SAMD7, for which the median seed-adjusted z-score is inactive: 0.161.

Turning to GAUGUGACCUAUCAAAUGATT against DHRS11, the median seed-adjusted z-score was inactive: -0.476.

Consider UGAUCUCAGUCGAAGAAGATT against ZP4, for which the median seed-adjusted z-score is inactive: 0.0498.

On to GGUGGACACUUGUAUACAATT against KCTD6, for which the median seed-adjusted z-score is inactive: 0.124.

Consider CCAUCACCUUCAAUCCGCUTT against PEMT, for which the median seed-adjusted z-score is inactive: 0.0218.

For the sequence CCAGAUCAGUCCUAGCUUATT against GLIS3, the median seed-adjusted z-score is inactive: -0.00906.

CCGUUGAGCUGCAUACUAATT against CA3: the median seed-adjusted z-score was inactive: -0.276.

CCUUAACAUUUGUAGACUUTT against ZNF765: the median seed-adjusted z-score was inactive: 0.541.

For the sequence GGAGGUUCAGAAGCACCUATT against PACSIN2, the median seed-adjusted z-score was inactive: 0.73.

CAAGGAGUAUGAGUACUCATT against IL12B: the median seed-adjusted z-score is inactive: 0.409.

Turning to GCCUAUUCCUUCAAGUAUUTT against SUPT6H, the median seed-adjusted z-score was active: -2.54.

As to GCUCCAGUCUUGUUAAACATT against ZNF773, the median seed-adjusted z-score was inactive: 0.345.

For GGCACAUCAUCUACAUAGATT against MMEL1, the median seed-adjusted z-score is inactive: 0.325.

In the case of CAGUGGAUAUCAAGCUUAATT against OPA1, the median seed-adjusted z-score is inactive: -0.182.

Regarding GCCUAUCAGUGGAGUGUUATT against PLAA, the median seed-adjusted z-score was inactive: -0.192.

Regarding GAUCAGGUGUAAAUAGUGATT against DEK, the median seed-adjusted z-score is inactive: 0.374.

Take UUUUGUUCAUAUAACGUCATT against IFNA1: the median seed-adjusted z-score is inactive: -0.625.

For GAACUCUUUCAAGAUCUAATT against ETV1, the median seed-adjusted z-score was inactive: 0.167.

In the case of GCAAGGCAAUGCAAACGAATT against DDX43, the median seed-adjusted z-score was inactive: -0.452.

GCGCAAAGCUGAUUCUGAUTT against CBX1: the median seed-adjusted z-score is inactive: 0.

As for GGCUCCAGAUCAUGAAGUATT against ZNF48, the median seed-adjusted z-score is inactive: -0.116.

For the sequence CCGAGAAGCUUCUAUUUCATT against DGKI, the median seed-adjusted z-score was inactive: -0.417.

For the sequence UGAGCUACAUGGUAUAUUUTT against ADORA2B, the median seed-adjusted z-score is inactive: -0.471.

For the sequence GGAUCGCCCUGUAUGCUGUTT against LRTM2, the median seed-adjusted z-score was inactive: 0.465.

As to AGUGCUACCUGAUCUCCGATT against DMRTB1, the median seed-adjusted z-score is inactive: -0.393.

As to GAGGUACUCUAUCAACGUATT against LRP1B, the median seed-adjusted z-score is inactive: -0.0589.

In the case of GAAAAACGGUGAGUACCUUTT against ADAMTS5, the median seed-adjusted z-score was inactive: -0.306.

Consider GCAAUAUUGCUACUUCGCUTT against HSD17B7, for which the median seed-adjusted z-score is inactive: 0.0836.

As for CGAGUAUAAUGACGUGGUATT against PRSS16, the median seed-adjusted z-score is inactive: -0.0226.

As to GGCUGAGAGAGUCUACUUUTT against RPIA, the median seed-adjusted z-score is inactive: 0.0803.

For ACAUCAUAGUUGUAGGACATT against IRF2, the median seed-adjusted z-score is inactive: 0.367.

As for GAACGGCCCGGAUCAUUGATT against SEPHS2, the median seed-adjusted z-score was inactive: -0.392.

Take AGACCUUUGUCAUCCCACUTT against PKN3: the median seed-adjusted z-score is inactive: 0.476.

“CCACGAUGUGGGAUAAUAATT against GALNAC4S-6ST”: the median seed-adjusted z-score was inactive: 0.218.

For GUAUCGCAGUUCUUCGAAUTT against ALX1, the median seed-adjusted z-score is inactive: -0.556.

Turning to CGCCUGGUCUAUGAACUUUTT against SCARF1, the median seed-adjusted z-score was inactive: -0.324.

Take GCGUGGAAGUGAAGCACCATT against CD5L: the median seed-adjusted z-score was inactive: 0.

Regarding CUCUCUAUAUUGAAACCAATT against CHN1, the median seed-adjusted z-score was inactive: 2.1e-05.

Consider GGCACGUUCUGGAAACAUATT against GMPS, for which the median seed-adjusted z-score was inactive: -0.485.

Take CGAAUGAAACCAUACAUAUTT against MAS1L: the median seed-adjusted z-score was inactive: 0.0585.

In the case of GGUCGAAACAUUACUAUCATT against XPO4, the median seed-adjusted z-score is inactive: 0.616.

For the sequence CGAGAAUGUCUGGUCUGUATT against FHL3, the median seed-adjusted z-score was inactive: 0.105.

GAGUUUUAGUCGCAAUAUATT against SYT14L: the median seed-adjusted z-score was inactive: 0.2.

As to GAUGUUGAGUUGAUUGAUATT against CARD8, the median seed-adjusted z-score was inactive: 0.115.

For the sequence UUAUAUAGCUUGAAACAUATT against CRH, the median seed-adjusted z-score is inactive: 0.64.

For the sequence GACCAGCUGCGCAAUGUUATT against ATOH1, the median seed-adjusted z-score is inactive: -0.374.

Turning to AGAGCACAUCAAAUCAGAATT against PAX2, the median seed-adjusted z-score was inactive: 0.341.

With GGAAGAACGCAGUCGUGAATT against TRIP10, the median seed-adjusted z-score was inactive: -0.261.

Consider GCAUCUCUAGAUCCCAUUATT against HLX, for which the median seed-adjusted z-score is inactive: 0.379.

With AGCCGACAGUCCAUAAGAATT against EPS8L2, the median seed-adjusted z-score is inactive: -0.497.

UGCUGGUGGUUGAGCCUGATT against ESRRA: the median seed-adjusted z-score was inactive: -0.833.

As for CCAAGGACGGCUGGGUUUATT against WWOX, the median seed-adjusted z-score is inactive: -0.583.

GGAAUACAGUGACGACAAATT against ING5: the median seed-adjusted z-score was inactive: -0.193.

Consider GACUGUUACCAUAUCCCAATT against SH3KBP1, for which the median seed-adjusted z-score was inactive: -0.34.

With CCAGUUUGUUUACAUGAGATT against SLC13A5, the median seed-adjusted z-score was inactive: 0.

For the sequence CAACAGUACCAAACACGAUTT against PIAS1, the median seed-adjusted z-score is inactive: -0.0367.

Consider GAGGUUAUGAUGUGGAAAATT against HBEGF, for which the median seed-adjusted z-score was inactive: -0.903.

In the case of CGUUGCUAGUGCUCACUUATT against FRAG1, the median seed-adjusted z-score is inactive: -0.554.

As to GGAAUUAUGUAACAAGUGUTT against ZDHHC21, the median seed-adjusted z-score is inactive: 0.216.

On to GGCGGAUCUUUGGACAGAATT against PRTN3, for which the median seed-adjusted z-score is inactive: -0.49.

With GCAGAUAUGGUAUUAGACATT against SLC4A7, the median seed-adjusted z-score is inactive: 0.

On to CGAGAGACUUAUCAAAAAUTT against ACOX3, for which the median seed-adjusted z-score was inactive: 0.658.

As to CAGUUGUACUGGACGGCUATT against PALLD, the median seed-adjusted z-score was inactive: -0.307.

As to CUAUGUACCAAGAUUGAUATT against WFDC8, the median seed-adjusted z-score was inactive: 0.0427.

Take CGUACUUUCCUUCAUCGAATT against XPOT: the median seed-adjusted z-score was inactive: 0.366.

For the sequence GCUCUUCGCUUUAUCCUCATT against VARS2, the median seed-adjusted z-score is inactive: 0.288.

As to CACCUGUACUUAUCCCGAATT against MEGF10, the median seed-adjusted z-score is inactive: 0.622.

On to CCACAACUGCAACAAUUCATT against GPR108, for which the median seed-adjusted z-score was inactive: 0.369.

For the sequence GGCCGAGUGGGAUGACUAUTT against PEBP1, the median seed-adjusted z-score is inactive: 0.641.

Consider CACAAAAUACGGCAGAGAATT against HCCA2, for which the median seed-adjusted z-score is inactive: 0.862.

Turning to CAGAUGAUCUGACCAUUAATT against PSMA7, the median seed-adjusted z-score was inactive: 0.0726.

On to GCUUAGACCUGUCGGAUGATT against PIK3C3, for which the median seed-adjusted z-score was inactive: 0.

Consider GCCUUCAACCGGGAACAGATT against MBD1, for which the median seed-adjusted z-score was inactive: 0.

Consider CAAUAUCUGACAACAACAATT against CLDN10, for which the median seed-adjusted z-score is inactive: 0.0399.

As to GAUCUAUCUUCAGAACGGATT against SGOL2, the median seed-adjusted z-score was inactive: 0.114.

Turning to GAAUUGCAAAUCACCAUUUTT against ONECUT1, the median seed-adjusted z-score is inactive: -0.367.

For the sequence UGAAGUACAUGAAUAAACATT against STK32A, the median seed-adjusted z-score was inactive: 0.052.

Consider GGAGCACAAUAGAUCUGAATT against SEPX1, for which the median seed-adjusted z-score was inactive: -0.0545.

Turning to CAGUGAAGCUAGAAUCUCATT against CSNK1A1, the median seed-adjusted z-score is inactive: -0.608.

For CACUUACCAAGGAUACCAATT against PHC2, the median seed-adjusted z-score is inactive: 0.177.

Take GGCUCAAGUCUCAAACAGATT against RAB11FIP4: the median seed-adjusted z-score is inactive: 0.249.

For the sequence CUACACCUGUUUUGACCAATT against CDC14A, the median seed-adjusted z-score is inactive: 0.117.

Take GCGUAAAGGUUGUACAAGATT against NPHS2: the median seed-adjusted z-score is inactive: -0.857.

CGGUUGAAGUGUAGGGAGATT against TCEA1: the median seed-adjusted z-score was inactive: 0.

GAUAGAAGCAUGGAAUUGATT against MRS2: the median seed-adjusted z-score was active: 1.38.

As to GUUUUAUCAGAGGCCCUAATT against CDS2, the median seed-adjusted z-score is inactive: -0.811.

With CGACCUACCCACUACAAUATT against MAN2C1, the median seed-adjusted z-score is inactive: -0.489.

As for GGUACGACAUCUUCCAGUATT against GRM6, the median seed-adjusted z-score was inactive: -0.0544.

Turning to GCAGAGUUUCGUACCAGAATT against KPNA5, the median seed-adjusted z-score is inactive: -0.174.
